Patent US20180371551A1, “MAT2A INHIBITORS FOR TREATING MTAP NULL CANCER” (Agios Pharmaceuticals, Inc., priority 2015, published 2018)
At least one structure is not confirmed: it was looked up by name or label, or the drawing left a doubt.

Chains of the proteins cited; added tags and fusions are not shown.
UniProt O14744, whole entry: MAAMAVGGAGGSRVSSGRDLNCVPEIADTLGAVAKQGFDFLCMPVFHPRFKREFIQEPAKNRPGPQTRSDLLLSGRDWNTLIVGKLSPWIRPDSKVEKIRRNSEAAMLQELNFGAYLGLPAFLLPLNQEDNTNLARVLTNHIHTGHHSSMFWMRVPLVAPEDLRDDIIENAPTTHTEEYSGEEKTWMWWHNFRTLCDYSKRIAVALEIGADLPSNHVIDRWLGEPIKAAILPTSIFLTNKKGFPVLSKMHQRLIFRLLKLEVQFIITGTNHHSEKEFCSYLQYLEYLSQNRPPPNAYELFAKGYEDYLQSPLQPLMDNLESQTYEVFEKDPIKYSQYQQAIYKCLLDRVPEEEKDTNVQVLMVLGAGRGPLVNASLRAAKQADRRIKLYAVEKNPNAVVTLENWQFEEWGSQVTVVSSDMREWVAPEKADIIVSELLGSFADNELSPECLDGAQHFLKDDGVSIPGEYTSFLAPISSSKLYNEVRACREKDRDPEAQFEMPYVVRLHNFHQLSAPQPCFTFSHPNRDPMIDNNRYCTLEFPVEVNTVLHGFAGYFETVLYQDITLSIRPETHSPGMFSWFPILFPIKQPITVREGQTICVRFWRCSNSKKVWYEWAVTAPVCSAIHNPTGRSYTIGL

Target: T1, PRMT5 (Homo sapiens, UniProt O14744)
T1 construct: purchased Eurofins CEREP Panlabs
Experiment: N-methyltransferase in vitro activity assay
Format: biochemical
Conditions: versus all other methyltransferases tested
Method: MTA has been reported to inhibit activity of protein methyltransferases (Enouf et al., 1979). To test this notion directly, we performed an in vitro biochemical screen assessing enzyme activity of 33 different N-methyltransferases following treatment with 10 μM and 100 μM MTA (FIG. 4A). […] Next, we analyzed the MTA Ki for PRMT5, PRMT4, and a diverse subset of methyltransferases (FIG. 4C). In vitro screening of methyltransferase inhibition by MTA, as well as SAM Km measurements, was conducted using a panel of methyltransferase assays at Eurofins CEREP Panlabs.

CSC[C@H]1O[C@@H](n2cnc3c(N)ncnc32)[C@H](O)[C@@H]1O [MTA, methylthioadenosine]
MTA Ki for PRMT5 lower than that for any other methyltransferase: > 20 fold
